Results are given in words; binding and its absence hold for the method and conditions named.
What was measured:
[1] = biological target: SPACA6 ectodomain (Sperm Acrosome Membrane-Associated protein 6, residues 27-246) (human) (UniProt W5XKT8); assay: SEC-MALS
[2] = biological target: His-tagged IZUMO1 ectodomain (bait in pull-down) (human) (UniProt Q8IYV9); assay: pull-down

Sequences of proteins named here, by UniProt entry; tags and fusion partners are left off. Residues count along the entry.
UniProt Q8IYV9, residues 22-292: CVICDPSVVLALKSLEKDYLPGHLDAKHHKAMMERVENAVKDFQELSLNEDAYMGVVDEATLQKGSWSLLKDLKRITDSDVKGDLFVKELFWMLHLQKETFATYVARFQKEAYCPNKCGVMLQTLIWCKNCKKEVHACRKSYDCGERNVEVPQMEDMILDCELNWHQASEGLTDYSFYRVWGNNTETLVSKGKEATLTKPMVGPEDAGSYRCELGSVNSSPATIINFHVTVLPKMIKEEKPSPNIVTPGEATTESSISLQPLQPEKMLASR

binding [1]: no binding (tested: 1.2 mg mL^-1)
binding [2]: no binding
B1: SPACA6 ectodomain (Sperm Acrosome Membrane-Associated protein 6, residues 27-246) (domain or fragment, UniProt W5XKT8-1 27-246)
chain: CLLCFTTYSERLRICQMFVGMRSPKLEECEEAFTAAFQGLSDTEINYDERSHLHDTFTQMTHALQELAAAQGSFEVAFPDAAEKMKKVITQLKEAQACIPPCGLQEFARRFLCSGCYSRVCDLPLDCPVQDVTVTRGDQAMFSCIVNFQLPKEEITYSWKFAGGGLRTQDLSYFRDMPRAEGYLARIRPAQLTHRGTFSCVIKQDQRPLARLYFFLNVTG
modifications: one N-linked glycan (fully glycosylated)

Source: publication doi:10.1101/2022.03.23.484325
